Laboratory results published in US20220056137A1.
Results are given in words; binding and its absence hold for the method and conditions named.

Molecular target: cyno PD-L1 (cyno)
Experiment: BLI (Octet), antibody on AHC biosensor, cyno PD-L1 as analyte

- binding: no binding (tested: 300 nM)
B1: antibody A15 (antibody, V domains shown)
VH: QLQLQESGPGLVKPSETLSLTCTVSGGSFNRSNYYWGWIRQPPGKGLEWIGSIYYSGSTYYNPSLKSRLTISADTSKTQFSLKRNSVTAADTAVYYCAREDIVVVPAAQPPHFYFGMDVWGQGTTVTVSS
VL: DIQMTQSPSSLSASVGDRVTITCRASQGIRNDLGWYQQKPGKAPKRLIYAASSLQSGVPSRFSGSGSGTEFTLTISSLQPEDFATYYCLQHDSYPLTFGGGTKVEIK
